# Data published in patent publication US10525115B2 (Immatics Biotechnologies GmbH, priority 2014, dated 2020).
# B1: TFCP2 (protein, UniProt Q12800 1-502, looked up)
# Alpha-globin transcription …: MAWALKLPLADEVIESGLVQDFDASLSGIGQELGAGAYSMSDVLALPIFKQEESSLPPDNENKILPFQYVLCAATSPAVKLHDETLTYLNQGQSYEIRMLDNRKLGELPEINGKLVKSIFRVVFHDRRLQYTEHQQLEGWRWNRPGDRILDIDIPMSVGIIDPRANPTQLNTVEFLWDPAKRTSVFIQVHCISTEFTMRKHGGEKGVPFRVQIDTFKENENGEYTEHLHSASCQIKVFKPKGADRKQKTDREKMEKRTPHEKEKYQPSYETTILTECSPWPEITYVNNSPSPGFNSSHSSFSLGEGNGSPNHQPEPPPPVTDNLLPTTTPQEAQQWLHRNRFSTFTRLFTNFSGADLLKLTRDDVIQICGPADGIRLFNALKGRMVRPRLTIYVCQESLQLREQQQQQQQQQQKHEDGDSNGTFFVYHAIYLEELTAVELTEKIAQLFSISPCQISQIYKQGPTGIHVLISDEMIQNFQEEACFILDTMKAETNDSYHIILK
# B2: HLX (protein, UniProt Q14774 1-488, looked up)
# H2.0-like homeobox protein: MFAAGLAPFYASNFSLWSAAYCSSAGPGGCSFPLDPAAVKKPSFCIADILHAGVGDLGAAPEGLAGASAAALTAHLGSVHPHASFQAAARSPLRPTPVVAPSEVPAGFPQRLSPLSAAYHHHHPQQQQQQQQPQQQQPPPPPRAGALQPPASGTRVVPNPHHSGSAPAPSSKDLKFGIDRILSAEFDPKVKEGNTLRDLTSLLTGGRPAGVHLSGLQPSAGQFFASLDPINEASAILSPLNSNPRNSVQHQFQDTFPGPYAVLTKDTMPQTYKRKRSWSRAVFSNLQRKGLEKRFEIQKYVTKPDRKQLAAMLGLTDAQVKVWFQNRRMKWRHSKEAQAQKDKDKEAGEKPSGGAPAADGEQDERSPSRSEGEAESESSDSESLDMAPSDTERTEGSERSLHQTTVIKAPVTGALITASSAGSGGSSGGGGNSFSFSSASSLSSSSTSAGCASSLGGGGASELLPATQPTASSAPKSPEPAQGALGCL
# B3: CBX2 (protein, UniProt Q14781 1-532, looked up)
# Chromobox protein homolog 2: MEELSSVGEQVFAAECILSKRLRKGKLEYLVKWRGWSSKHNSWEPEENILDPRLLLAFQKKEHEKEVQNRKRGKRPRGRPRKLTAMSSCSRRSKLKEPDAPSKSKSSSSSSSSTSSSSSSDEEDDSDLDAKRGPRGRETHPVPQKKAQILVAKPELKDPIRKKRGRKPLPPEQKATRRPVSLAKVLKTARKDLGAPASKLPPPLSAPVAGLAALKAHAKEACGGPSAMATPENLASLMKGMASSPGRGGISWQSSIVHYMNRMTQSQAQAASRLALKAQATNKCGLGLDLKVRTQKGELGMSPPGSKIPKAPSGGAVEQKVGNTGGPPHTHGASRVPAGCPGPQPAPTQELSLQVLDLQSVKNGMPGVGLLARHATATKGVPATNPAPGKGTGSGLIGASGATMPTDTSKSEKLASRAVAPPTPASKRDCVKGSATPSGQESRTAPGEARKAATLPEMSAGEESSSSDSDPDSASPPSTGQNPSVSVQTSQDWKPTRSLIEHVFVTDVTANLITVTVKESPTSVGFFNLRHY
# B4: CLEC12A (protein, UniProt Q5QGZ9 1-265, looked up)
# C-type lectin domain family …: MSEEVTYADLQFQNSSEMEKIPEIGKFGEKAPPAPSHVWRPAALFLTLLCLLLLIGLGVLASMFHVTLKIEMKKMNKLQNISEELQRNISLQLMSNMNISNKIRNLSTTLQTIATKLCRELYSKEQEHKCKPCPRRWIWHKDSCYFLSDDVQTWQESKMACAAQNASLLKINNKNALEFIKSQSRSYDYWLGLSPEEDSTRGMRVDNIINSSAWVIRNAPDLNNMYCGYINRLYVQYYHCTYKKRMICEKMANPVQLGSTYFREA
# B5: SLX4IP (protein, UniProt Q5VYV7 1-408, looked up)
# Protein SLX4IP: MASKKFAVKCGNFAVLVDLHILPQGSNKDTSWFSEQKKEEVCLLLKETIDSRVQEYLEVRKQHRPSNAEFTRSNPLSLKGYGFQITAYFLKRGIRLRCIRSTQNAELCVFPDRFVVCVSQLAFSRDLLASQNEDLTERVLHGVSDYFAECAESSLPPSAKLRRNALKEIVKRTETKSSVTSKSQTRRDTVETSSDSVIAEIARRRNDGQASSSPPSESMGQAKDSIKAAESHWGLPVQKLEKVNQTQPEDTSGQQKPHPGERLKTGLLSRSPVCSCESASPCPKQSPRVAKTQQKRRNCSSAEDFDHHGRVSLGSDRLVPREIIVEKSKAVRVLPASELSDPGLLLKQDLAKTTSKEELHVLESLSSRHLMKNNPGQAQQTGLATNTERLSTIQNSPTKKRKKYERGH
# B6: RLTPR (protein, UniProt Q6F5E8 1-1435, looked up)
# Capping protein, Arp2/3 and …: MAQTPDGISCELRGEITRFLWPKEVELLLKTWLPGEGAVQNHVLALLRWRAYLLHTTCLPLRVDCTFSYLEVQAMALQETPPQVTFELESLRELVLEFPGVAALEQLAQHVAAAIKKVFPRSTLGKLFRRPTPASMLARLERSSPSESTDPCSPCGGFLETYEALCDYNGFPFREEIQWDVDTIYHRQGCRHFSLGDFSHLGSRDLALSVAALSYNLWFRCLSCVDMKLSLEVSEQILHMMSQSSHLEELVLETCSLRGDFVRRLAQALAGHSSSGLRELSLAGNLLDDRGMTALSRHLERCPGALRRLSLAQTGLTPRGMRALGRALATNAAFDSTLTHLDLSGNPGALGASEDSGGLYSFLSRPNVLSFLNLAGTDTALDTVRGCSVGGWMTGRADWRAGRGGLGPPAGVANSLPPQLFAAVSRGCCTSLTHLDASRNVFSRTKSRAAPAALQLFLSRARTLRHLGLAGCKLPPDALRALLDGLALNTHLRDLHLDLSACELRSAGAQVIQDLVCDAGAVSSLDLADNGFGSDMVTLVLAIGRSRSLRHVALGRNFNVRCKETLDDVLHRIVQLMQDDDCPLQSLSVAESRLKLGASVLLRALATNPNLTALDISGNAMGDAGAKLLAKALRVNSRLRSVVWDRNHTSALGLLDVAQALEQNHSLKAMPLPLNDVAQAQRSRPELTARAVHQIQACLLRNNRADPASSDHTTRLQPLGLVSDPSEQEVNELCQSVQEHVELLGCGAGPQGEAAVRQAEDAIQNANFSLSILPILYEAGSSPSHHWQLGQKLEGLLRQVGEVCRQDIQDFTQATLDTARSLCPQMLQGSSWREQLEGVLAGSRGLPELLPEQLLQDAFTRLRDMRLSITGTLAESIVAQALAGLSAARDQLVESLAQQATVTMPPALPAPDGGEPSLLEPGELEGLFFPEEKEEEKEKDDSPPQKWPELSHGLHLVPFIHSAAEEAEPEPELAAPGEDAEPQAGPSARGSPSPAAPGPPAGPLPRMDLPLAGQPLRHPTRARPRPRRQHHHRPPPGGPQVPPALPQEGNGLSARVDEGVEEFFSKRLIQQDRLWAPEEDPATEGGATPVPRTLRKKLGTLFAFKKPRSTRGPRTDLETSPGAAPRTRKTTFGDLLRPPTRPSRGEELGGAEGDTSSPDPAGRSRPRYTRDSKAYSMILLPAEEEATLGARPDKRRPLERGETELAPSFEQRVQVMLQRIGVSRGSGGAEGKRKQSKDGEIKKAGSDGDIMDSSTEAPPISIKSRTHSVSADPSCRPGPGSQGPESATWKTLGQQLNAELRSRGWGQQDGPGPPSPGQSPSPCRTSPSPDSLGLPEDPCLGPRNEDGQLRPRPLSAGRRAVSVHEDQLQAPAERPLRLQRSPVLKRRPKLEAPPSPSLGSGLGTEPLPPQPTEPSSPERSPPSPATDQRGGGPNP
# B7: RNF19B (protein, UniProt Q6ZMZ0 1-732, looked up)
# E3 ubiquitin-protein ligase …: MGSEKDSESPRSTSLHAAAPDPKCRSGGRRRRLTLHSVFSASARGRRARAKPQAEPPPPAAQPPPAPAPAAAQGPPPEALPAEPAAEAEAEAAAAAAEPGFDDEEAAEGGGPGAEEVECPLCLVRLPPERAPRLLSCPHRSCRDCLRHYLRLEISESRVPISCPECSERLNPHDIRLLLADPPLMHKYEEFMLRRYLASDPDCRWCPAPDCGYAVIAYGCASCPKLTCEREGCQTEFCYHCKQIWHPNQTCDMARQQRAQTLRVRTKHTSGLSYGQESGPADDIKPCPRCSAYIIKMNDGSCNHMTCAVCGCEFCWLCMKEISDLHYLSPSGCTFWGKKPWSRKKKILWQLGTLIGAPVGISLIAGIAIPAMVIGIPVYVGRKIHSRYEGRKTSKHKRNLAITGGVTLSVIASPVIAAVSVGIGVPIMLAYVYGVVPISLCRGGGCGVSTANGKGVKIEFDEDDGPITVADAWRALKNPSIGESSIEGLTSVLSTSGSPTDGLSVMQGPYSETASFAALSGGTLSGGILSSGKGKYSRLEVQADVQKEIFPKDTASLGAISDNASTRAMAGSIISSYNPQDRECNNMEIQVDIEAKPSHYQLVSGSSTEDSLHVHAQMAENEEEGSGGGGSEEDPPCRHQSCEQKDCLASKPWDISLAQPESIRSDLESSDAQSDDVPDITSDECGSPRSHTAACPSTPRAQGAPSPSAHMNLSALAEGQTVLKPEGGEARV
# B8: CHD1L (protein, UniProt Q86WJ1 1-897, looked up)
# Chromodomain-helicase-DNA-bind …: MERAGATSRGGQAPGFLLRLHTEGRAEAARVQEQDLRQWGLTGIHLRSYQLEGVNWLAQRFHCQNGCILGDEMGLGKTCQTIALFIYLAGRLNDEGPFLILCPLSVLSNWKEEMQRFAPGLSCVTYAGDKEERACLQQDLKQESRFHVLLTTYEICLKDASFLKSFPWSVLVVDEAHRLKNQSSLLHKTLSEFSVVFSLLLTGTPIQNSLQELYSLLSFVEPDLFSKEEVGDFIQRYQDIEKESESASELHKLLQPFLLRRVKAEVATELPKKTEVVIYHGMSALQKKYYKAILMKDLDAFENETAKKVKLQNILSQLRKCVDHPYLFDGVEPEPFEVGDHLTEASGKLHLLDKLLAFLYSGGHRVLLFSQMTQMLDILQDYMDYRGYSYERVDGSVRGEERHLAIKNFGQQPIFVFLLSTRAGGVGMNLTAADTVIFVDSDFNPQNDLQAAARAHRIGQNKSVKVIRLIGRDTVEEIVYRKAASKLQLTNMIIEGGHFTLGAQKPAADADLQLSEILKFGLDKLLASEGSTMDEIDLESILGETKDGQWVSDALPAAEGGSRDQEEGKNHMYLFEGKDYSKEPSKEDRKSFEQLVNLQKTLLEKASQEGRSLRNKGSVLIPGLVEGSTKRKRVLSPEELEDRQKKRQEAAAKRRRLIEEKKRQKEEAEHKKKMAWWESNNYQSFCLPSEESEPEDLENGEESSAELDYQDPDATSLKYVSGDVTHPQAGAEDALIVHCVDDSGHWGRGGLFTALEKRSAEPRKIYELAGKMKDLSLGGVLLFPVDDKESRNKGQDLLALIVAQHRDRSNVLSGIKMAALEEGLKKIFLAAKKKKASVHLPRIGHATKGFNWYGTERLIRKHLAARGIPTYIYYFPRSKSAVLHSQSSSSSSRQLVP
# Tested on: primary AML samples
# Assay: HLA class I ligandome analysis (W6/32 immunoaffinity purification, LC-MS/MS) of primary AML samples
# Set-up: species or system human
# Settings: HLA class I ligandome, AML patients (n=15); count for the HLA ligand (LiTAP) or, on protein lines, for the source protein (LiTAA)
row,Molecule,Number of positive AMLs
1,B1,3
2,B2,3
3,B3,3
4,B4,3
5,B5,3
6,B6,3
7,B7,3
8,B8,5

# Same assay, conditions: representation frequency of the source protein (LiTAA) in AML patients (n=15)
row,Molecule,Number of positive AMLs [rep. frequency]
1,B1,[20.0%]
2,B2,[20.0%]
3,B3,[20.0%]
4,B4,[20.0%]
5,B5,[20.0%]
6,B6,[20.0%]
7,B7,[20.0%]
8,B8,[33.3%]
